These results are taken from article PMC6650555.

Sequences of proteins named here, by UniProt entry; tags and fusion partners are left off. A change or cut given only in a name is not applied to a line headed by its entry.
UniProt Q16666: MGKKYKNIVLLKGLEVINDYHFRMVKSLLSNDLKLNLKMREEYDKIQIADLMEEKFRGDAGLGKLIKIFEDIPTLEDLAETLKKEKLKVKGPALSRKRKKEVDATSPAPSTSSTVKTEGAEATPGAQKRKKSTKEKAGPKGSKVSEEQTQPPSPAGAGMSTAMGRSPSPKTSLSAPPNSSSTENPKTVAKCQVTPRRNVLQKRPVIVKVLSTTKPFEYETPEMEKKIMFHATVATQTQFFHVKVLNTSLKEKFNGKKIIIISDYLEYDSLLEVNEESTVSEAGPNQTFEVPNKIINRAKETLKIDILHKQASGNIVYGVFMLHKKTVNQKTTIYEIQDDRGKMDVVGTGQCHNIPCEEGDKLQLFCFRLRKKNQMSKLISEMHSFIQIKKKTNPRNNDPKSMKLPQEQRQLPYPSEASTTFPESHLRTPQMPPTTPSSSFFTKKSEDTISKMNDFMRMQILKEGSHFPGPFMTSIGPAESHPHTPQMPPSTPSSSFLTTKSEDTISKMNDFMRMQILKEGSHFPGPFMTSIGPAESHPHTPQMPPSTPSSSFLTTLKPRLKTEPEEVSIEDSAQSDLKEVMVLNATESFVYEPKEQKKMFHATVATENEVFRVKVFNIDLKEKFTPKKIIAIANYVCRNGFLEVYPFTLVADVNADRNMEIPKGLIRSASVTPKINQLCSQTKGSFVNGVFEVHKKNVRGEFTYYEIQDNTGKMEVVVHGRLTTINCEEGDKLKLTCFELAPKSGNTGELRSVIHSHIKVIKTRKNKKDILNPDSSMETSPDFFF
UniProt Q9UER7: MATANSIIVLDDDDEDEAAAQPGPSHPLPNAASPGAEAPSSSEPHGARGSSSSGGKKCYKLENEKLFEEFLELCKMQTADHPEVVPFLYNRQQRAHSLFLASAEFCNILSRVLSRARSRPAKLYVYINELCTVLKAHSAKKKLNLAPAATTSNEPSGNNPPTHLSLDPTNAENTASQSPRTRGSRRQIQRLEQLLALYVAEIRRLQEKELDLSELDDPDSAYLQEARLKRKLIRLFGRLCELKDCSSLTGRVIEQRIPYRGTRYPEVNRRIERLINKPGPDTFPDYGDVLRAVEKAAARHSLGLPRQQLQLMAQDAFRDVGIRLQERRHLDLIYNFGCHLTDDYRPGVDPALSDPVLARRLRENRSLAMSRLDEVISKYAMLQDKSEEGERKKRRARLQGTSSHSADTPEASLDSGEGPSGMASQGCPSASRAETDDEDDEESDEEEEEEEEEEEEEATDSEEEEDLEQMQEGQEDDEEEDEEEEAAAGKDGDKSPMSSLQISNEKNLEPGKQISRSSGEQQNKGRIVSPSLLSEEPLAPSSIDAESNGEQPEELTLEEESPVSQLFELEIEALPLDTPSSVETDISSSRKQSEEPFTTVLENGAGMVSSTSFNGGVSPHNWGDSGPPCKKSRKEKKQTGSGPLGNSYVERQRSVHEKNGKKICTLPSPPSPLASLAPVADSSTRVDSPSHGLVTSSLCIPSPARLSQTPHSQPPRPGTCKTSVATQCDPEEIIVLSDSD
UniProt P29590: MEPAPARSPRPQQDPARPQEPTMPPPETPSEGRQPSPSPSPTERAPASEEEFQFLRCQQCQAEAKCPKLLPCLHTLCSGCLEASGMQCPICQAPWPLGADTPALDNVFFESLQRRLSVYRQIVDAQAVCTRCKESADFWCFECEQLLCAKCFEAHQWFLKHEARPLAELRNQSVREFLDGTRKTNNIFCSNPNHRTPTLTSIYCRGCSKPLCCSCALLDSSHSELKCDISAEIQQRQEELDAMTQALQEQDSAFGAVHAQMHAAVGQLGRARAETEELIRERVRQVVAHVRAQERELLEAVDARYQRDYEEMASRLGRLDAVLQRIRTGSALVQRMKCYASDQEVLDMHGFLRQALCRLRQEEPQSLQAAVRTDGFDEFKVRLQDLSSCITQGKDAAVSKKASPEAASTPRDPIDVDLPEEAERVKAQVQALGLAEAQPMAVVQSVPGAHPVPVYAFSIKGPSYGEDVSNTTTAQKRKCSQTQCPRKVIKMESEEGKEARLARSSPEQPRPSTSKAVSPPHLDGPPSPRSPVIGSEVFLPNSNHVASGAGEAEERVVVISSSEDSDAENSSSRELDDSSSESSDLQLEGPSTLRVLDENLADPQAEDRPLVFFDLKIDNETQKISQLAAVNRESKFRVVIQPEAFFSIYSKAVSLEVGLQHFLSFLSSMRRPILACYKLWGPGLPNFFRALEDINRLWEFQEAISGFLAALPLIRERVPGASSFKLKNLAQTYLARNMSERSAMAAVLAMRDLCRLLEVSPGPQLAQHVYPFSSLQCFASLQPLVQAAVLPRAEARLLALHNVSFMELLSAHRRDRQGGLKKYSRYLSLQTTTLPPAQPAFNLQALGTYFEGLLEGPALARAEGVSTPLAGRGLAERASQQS

These are yes or no findings as the source states them, for the method shown. In cells and extracts the contact can be indirect. A yes stands for co-enrichment or nearness to the bait. Other partners may have been found.

The assay has as its target CRISPR-resistant full-length IFI16-GFP R23K (UniProt Q16666). The assay is described as follows: affinity purification with mass spectrometry; HFFs lacking endogenous IFI16 and stably expressing CRISPR-resistant IFI16-GFP constructs, infected with ICP0-RF HSV-1 (6 hpi, MOI of 10); GFP IP; targeted MS/MS (PRM) of proteotypic peptides, relative to the WT IFI16 IP and normalized by IFI16 ….

For DAXX (from UniProt Q9UER7 1-740), the binding entry was “binds”. As for PML (from UniProt P29590 1-882), the binding result is recorded as “binds”.
